Measured values: PubChem BioAssay AID200 (DTP/NCI, 2004)
The list does not hold the whole screen: it is rich in T/C values a quarter to a half above the control, in often repeated tests (any T/C) and in doses without a T/C. Further doses and runs are listed elsewhere. T/C gives the treated animals as a percentage of the vehicle group. Some doses have a count of surviving animals in place of a T/C: the source files T/C as zero there, which appears to mark a toxic dose or a test without result, not a measured value. Some survivor counts are full or nearly so, which does not show that the dose was tolerated: the source hardly ever lists a survival T/C far under the control, and the zero likely stands for such cases as well. Counts of survivors are from the toxicity check (mostly the fifth day) where no day follows; animals may have died later. Schedule codes are those of the source, taken here to give the interval after Q, in days (D) or hours (H), and the number of doses after X. Some entries hold several experiments; the results are listed from low to high. Where survival is the endpoint, the PubChem record calls one and a half times the control and up active, and a quarter to a half above the control has no call in these data; cut-offs in other NCI protocols can differ. Some T/C values are followed by the survivors on the day toxicity was checked, most often the fifth; where none is given, no animal had died by that day.

System: B6C3F1 mice, B16 melanoma ip, median survival T/C
Test: NCI In Vivo Anticancer Drug Screen. Data for tumor model B16 Melanoma (intraperitoneal) in B6C3F1 mice
Settings: T/C endpoint: median survival time, higher T/C = longer survival
Summary of the method: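 Mice bearing transplanted tumor were dosed with compound or vehicle, and survival was recorded. Activity is expressed as the treated-group measurement (T) divided by the vehicle control measurement (C).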

[1] = dose: 8.0 mg/kg/injection, schedule: Q01DX009 (ip), vehicle: saline + alcohol
[2] = dose: 16.0 mg/kg/injection, schedule: Q01DX009 (ip), vehicle: saline + alcohol
[3] = dose: 50.0 mg/kg/injection, schedule: Q01DX009 (ip), vehicle: Klucel (hydroxypropylcellulose) (HPC)
[4] = dose: 100.0 mg/kg/injection, schedule: Q01DX009 (ip), vehicle: saline

CC(=O)OC1C(O)C(C)OC(OC2C(OC(=O)C3CCC4C(C3)OC3(CC(OC(=O)/C=C/c5ccccc5)C(C)CO3)C43CO3)OC(C)C(O)C2OC(C)=O)C1O (stereo not given)
T/C (dose: 1.5 mg/kg/injection, schedule: Q03HX024 (ip), vehicle: other): 130 % of control [7 of 9 alive]
T/C (dose: 1.8 mg/kg/injection, schedule: Q01DX005 (ip), vehicle: other): 133 % of control
T/C (dose: 2.0 mg/kg/injection, schedule: Q01DX009 (ip), vehicle: other): 130 % of control [9 of 10 alive]
T/C (dose: 2.0 mg/kg/injection, schedule: Q01DX009 (ip), vehicle: saline + alcohol): 129 [9 of 10 alive], 131, 140 % of control
T/C (dose: 2.0 mg/kg/injection, schedule: Q01DX009 (ip), vehicle: saline): 147 % of control
T/C (dose: 2.0 mg/kg/injection, schedule: Q02DX005 (ip), vehicle: saline + Tween-80 + alcohol): 147 % of control
T/C (dose: 2.0 mg/kg/injection, schedule: Q02DX005 (ip), vehicle: saline + alcohol): 133 % of control
survivor count (dose: 3.0 mg/kg/injection, schedule: Q03HX024 (ip), vehicle: other): 7 of 10
T/C (dose: 3.0 mg/kg/injection, schedule: Q04DX003 (ip), vehicle: saline + Tween-80 + alcohol): 127 % of control [7 of 8 alive]
T/C (dose: 3.0 mg/kg/injection, schedule: Q04DX003 (ip), vehicle: saline + alcohol): 129 % of control
T/C (dose: 3.6 mg/kg/injection, schedule: Q01DX005 (ip), vehicle: other): 139 % of control
T/C (dose: 4.0 mg/kg/injection, schedule: Q01DX009 (ip), vehicle: other): 144 % of control
T/C (dose: 4.0 mg/kg/injection, schedule: Q01DX009 (ip), vehicle: saline + alcohol): 138, 145, 162, 163 % of control
T/C (dose: 4.0 mg/kg/injection, schedule: Q02DX005 (ip), vehicle: saline + Tween-80 + alcohol): 147 % of control
T/C (dose: 4.0 mg/kg/injection, schedule: Q02DX005 (ip), vehicle: saline + alcohol): 133 % of control
survivor count (dose: 4.5 mg/kg/injection, schedule: Q03HX008 (ip), vehicle: other): 3 of 10
survivor count (dose: 6.0 mg/kg/injection, schedule: Q03HX024 (ip), vehicle: other): 2 of 10
T/C (dose: 6.0 mg/kg/injection, schedule: Q04DX003 (ip), vehicle: other): 135 % of control
T/C (dose: 6.0 mg/kg/injection, schedule: Q04DX003 (ip), vehicle: saline + Tween-80 + alcohol): 143 % of control
T/C (dose: 6.0 mg/kg/injection, schedule: Q04DX003 (ip), vehicle: saline + alcohol): 127 % of control
T/C (dose: 7.2 mg/kg/injection, schedule: Q01DX005 (ip), vehicle: other): 148 % of control
T/C [1]: 161, 170, 174 % of control
survivor count [1]: 10 of 10
T/C (dose: 8.0 mg/kg/injection, schedule: Q02DX005 (ip), vehicle: saline + alcohol): 146 % of control
survivor count (dose: 9.0 mg/kg/injection, schedule: Q03HX008 (ip), vehicle: other): 0 of 10
survivor count (dose: 12.0 mg/kg/injection, schedule: Q03HX024 (ip), vehicle: other): 0 of 10
T/C (dose: 12.0 mg/kg/injection, schedule: Q04DX003 (ip), vehicle: other): 135 % of control
T/C (dose: 12.0 mg/kg/injection, schedule: Q04DX003 (ip), vehicle: saline + Tween-80 + alcohol): 137 % of control
T/C [2]: 144 [9 of 10 alive], 170, 190 % of control
survivor count [2]: 10 of 10
T/C (dose: 16.0 mg/kg/injection, schedule: Q01DX009 (ip), vehicle: saline): 142 % of control
survivor count (dose: 18.0 mg/kg/injection, schedule: Q03HX008 (ip), vehicle: other): 0 of 10
T/C (dose: 24.0 mg/kg/injection, schedule: Q04DX003 (ip), vehicle: other): 142 % of control
T/C (dose: 24.0 mg/kg/injection, schedule: Q04DX003 (ip), vehicle: saline + Tween-80 + alcohol): 138 % of control
T/C (dose: 24.0 mg/kg/injection, schedule: Q04DX003 (ip), vehicle: saline + alcohol): 127 % of control
survivor count (dose: 28.8 mg/kg/injection, schedule: Q01DX005 (ip), vehicle: other): 9 of 10
survivor count (dose: 28.8 mg/kg/injection, schedule: Q01DX005 (iv), vehicle: other): 0 of 10
survivor count (dose: 32.0 mg/kg/injection, schedule: Q01DX009 (ip), vehicle: distilled water + alcohol): 6 of 10
survivor count (dose: 32.0 mg/kg/injection, schedule: Q01DX009 (ip), vehicle: other): 10 of 10
survivor count (dose: 32.0 mg/kg/injection, schedule: Q01DX009 (ip), vehicle: saline + alcohol): 10 of 10 and 8 of 8
survivor count (dose: 32.0 mg/kg/injection, schedule: Q02DX005 (ip), vehicle: saline + Tween-80 + alcohol): 7 of 7
survivor count (dose: 36.0 mg/kg/injection, schedule: Q01DX001 (iv), vehicle: other): 3 of 10
survivor count (dose: 36.0 mg/kg/injection, schedule: Q03HX008 (ip), vehicle: other): 0 of 10
T/C (dose: 48.0 mg/kg/injection, schedule: Q04DX003 (ip), vehicle: other): 148 % of control
T/C (dose: 48.0 mg/kg/injection, schedule: Q04DX003 (ip), vehicle: saline + Tween-80 + alcohol): 132 % of control
T/C (dose: 48.0 mg/kg/injection, schedule: Q04DX003 (ip), vehicle: saline + alcohol): 131 % of control [9 of 10 alive]
survivor count (dose: 57.6 mg/kg/injection, schedule: Q01DX005 (ip), vehicle: other): 8 of 10
survivor count (dose: 64.0 mg/kg/injection, schedule: Q01DX009 (oral), vehicle: other): 1 of 10
T/C (dose: 64.0 mg/kg/injection, schedule: Q01DX009 (sc), vehicle: other): 128 % of control
survivor count (dose: 64.0 mg/kg/injection, schedule: Q02DX005 (ip), vehicle: saline + Tween-80 + alcohol): 7 of 7
survivor count (dose: 64.0 mg/kg/injection, schedule: Q02DX005 (ip), vehicle: saline + alcohol): 5 of 10
T/C (dose: 72.0 mg/kg/injection, schedule: Q01DX001 (ip), vehicle: other): 129 % of control
survivor count (dose: 72.0 mg/kg/injection, schedule: Q01DX001 (iv), vehicle: other): 0 of 10
T/C (dose: 96.0 mg/kg/injection, schedule: Q04DX003 (ip), vehicle: other): 141 % of control [8 of 9 alive]
survivor count (dose: 96.0 mg/kg/injection, schedule: Q04DX003 (ip), vehicle: saline + alcohol): 2 of 10
survivor count (dose: 128.0 mg/kg/injection, schedule: Q01DX009 (oral), vehicle: other): 0 of 10
survivor count (dose: 144.0 mg/kg/injection, schedule: Q01DX001 (ip), vehicle: other): 0 of 10
survivor count (dose: 144.0 mg/kg/injection, schedule: Q01DX001 (iv), vehicle: other): 0 of 10
survivor count (dose: 288.0 mg/kg/injection, schedule: Q01DX001 (ip), vehicle: other): 0 of 10

c1cc(OCC2CO2)ccc1OCC1CO1 (stereo not given)
T/C [3]: 133 % of control
survivor count (dose: 200.0 mg/kg/injection, schedule: Q01DX009 (ip), vehicle: Klucel (hydroxypropylcellulose) (HPC)): 7 of 10
survivor count (dose: 400.0 mg/kg/injection, schedule: Q01DX009 (ip), vehicle: Klucel (hydroxypropylcellulose) (HPC)): 0 of 10

CC(=O)Nc1ccc(N=Nc2c(C)nn(C(=N)N)c2C)cc1
survivor count [4]: 4 of 10

c1ccc(P(CCNCCP(c2ccccc2)c2ccccc2)c2ccccc2)cc1
survivor count (dose: 200.0 mg/kg/injection, schedule: Q01DX009 (ip), vehicle: saline with Tween-80): 8 of 8
survivor count (dose: 400.0 mg/kg/injection, schedule: Q01DX009 (ip), vehicle: saline with Tween-80): 7 of 10

O=CC(=O)c1ccc(O)cc1
survivor count [4]: 5 of 10
survivor count (dose: 200.0 mg/kg/injection, schedule: Q01DX009 (ip), vehicle: saline): 2 of 10

NC(CCCNc1cccc(O)c1)C(=O)O (stereo not given)
survivor count (dose: 150.0 mg/kg/injection, schedule: Q01DX009 (ip), vehicle: saline): 10 of 10

O=c1s[se]c2ccccc12
survivor count [3]: 0 of 10

N#CC(=C1SCS1)[N+](=O)[O-]
survivor count (dose: 12000.0 micrograms/kg/injection, schedule: Q01DX009 (ip), vehicle: saline with Tween-80): 8 of 10
